This test deals with OsDRB1-2 (rice (Oryza sativa)). Kind of test: two-hybrid; Matchmaker GAL4 two-hybrid system 3 (Clontech), Y2HGold yeast; OsDRB2 on GAL4 AD (pGADT7), DCL1-RBD or OsDRB1-2 on GAL4 BD (pGBKT7); growth on selective -Ade/-His/-Leu/-Trp plates, 28 °C.

These are yes or no findings as the source states them, for the method shown. A result given as binding can be weak or reduced; the word gives no strength.

B1: OsDRB2 (DOUBLE-STRANDED RNA-BINDING2) (protein, UniProt Q9AV50 1-514)
chain: MYKNQLQELAQRSCFNLPAYTCLREGPDHAPRFKAAVNFNGEQFESPGFFTTLRQAEHAAAEVALAALARRGPSYSLAARILDETGVYKNLLQEVAQRVGAPLPSYTTERSGLGHLPVFTCTVELAGITFTGDPAKNKKQAEKNAASAAWSSLRQLVRQEASSSNEPESNDEQEQIRIARALLNYRLKEKMAMANNPHASPFPKKFPMQPERRTAFPQSSHSSYSKILPLFRPKSNSRSRPESPAASDAASQTPFRPTESPNPRSRFPAAEAAPYVPVGHFRMPCHSMAPPVTVRTSIPVFSAPPLPPPGARTQQLPPLMSHPPPIRMASPVRIRPAPPLFTPSAVQGPKPMMPVQIKDVQHQQIKETRSPVMPVQVKDAQNQLLKGSLSPVIPVQIKDVQSQPPKEALSPAIPVQIKDVQLQPRNEPVSIGKGVVPLPAIRPPVKVEAPAEVKEASQPVAGSSVVQCKADTSPDSLPKTQLKTANADNADAKDDHLPVDAEEVEDIIRHLELK
Take B1: the binding result was “binds”.

The record behind these values is PMC9570175.
